Experimental data as given in the supplement of paper PMC11732987, “Enantioselective OTUD7B fragment discovery through chemoproteomics screening and high-throughput optimisation” (Communications Chemistry, 2025).
The other results are listed elsewhere or left out. The data scatter; read single values as rough.

By UniProt entry, the sequences of proteins in these tests, tags left out. Where a name states a change or a piece, a line headed by the entry shows the natural chain unless it says otherwise. Residues count along the entry.
UniProt O75147: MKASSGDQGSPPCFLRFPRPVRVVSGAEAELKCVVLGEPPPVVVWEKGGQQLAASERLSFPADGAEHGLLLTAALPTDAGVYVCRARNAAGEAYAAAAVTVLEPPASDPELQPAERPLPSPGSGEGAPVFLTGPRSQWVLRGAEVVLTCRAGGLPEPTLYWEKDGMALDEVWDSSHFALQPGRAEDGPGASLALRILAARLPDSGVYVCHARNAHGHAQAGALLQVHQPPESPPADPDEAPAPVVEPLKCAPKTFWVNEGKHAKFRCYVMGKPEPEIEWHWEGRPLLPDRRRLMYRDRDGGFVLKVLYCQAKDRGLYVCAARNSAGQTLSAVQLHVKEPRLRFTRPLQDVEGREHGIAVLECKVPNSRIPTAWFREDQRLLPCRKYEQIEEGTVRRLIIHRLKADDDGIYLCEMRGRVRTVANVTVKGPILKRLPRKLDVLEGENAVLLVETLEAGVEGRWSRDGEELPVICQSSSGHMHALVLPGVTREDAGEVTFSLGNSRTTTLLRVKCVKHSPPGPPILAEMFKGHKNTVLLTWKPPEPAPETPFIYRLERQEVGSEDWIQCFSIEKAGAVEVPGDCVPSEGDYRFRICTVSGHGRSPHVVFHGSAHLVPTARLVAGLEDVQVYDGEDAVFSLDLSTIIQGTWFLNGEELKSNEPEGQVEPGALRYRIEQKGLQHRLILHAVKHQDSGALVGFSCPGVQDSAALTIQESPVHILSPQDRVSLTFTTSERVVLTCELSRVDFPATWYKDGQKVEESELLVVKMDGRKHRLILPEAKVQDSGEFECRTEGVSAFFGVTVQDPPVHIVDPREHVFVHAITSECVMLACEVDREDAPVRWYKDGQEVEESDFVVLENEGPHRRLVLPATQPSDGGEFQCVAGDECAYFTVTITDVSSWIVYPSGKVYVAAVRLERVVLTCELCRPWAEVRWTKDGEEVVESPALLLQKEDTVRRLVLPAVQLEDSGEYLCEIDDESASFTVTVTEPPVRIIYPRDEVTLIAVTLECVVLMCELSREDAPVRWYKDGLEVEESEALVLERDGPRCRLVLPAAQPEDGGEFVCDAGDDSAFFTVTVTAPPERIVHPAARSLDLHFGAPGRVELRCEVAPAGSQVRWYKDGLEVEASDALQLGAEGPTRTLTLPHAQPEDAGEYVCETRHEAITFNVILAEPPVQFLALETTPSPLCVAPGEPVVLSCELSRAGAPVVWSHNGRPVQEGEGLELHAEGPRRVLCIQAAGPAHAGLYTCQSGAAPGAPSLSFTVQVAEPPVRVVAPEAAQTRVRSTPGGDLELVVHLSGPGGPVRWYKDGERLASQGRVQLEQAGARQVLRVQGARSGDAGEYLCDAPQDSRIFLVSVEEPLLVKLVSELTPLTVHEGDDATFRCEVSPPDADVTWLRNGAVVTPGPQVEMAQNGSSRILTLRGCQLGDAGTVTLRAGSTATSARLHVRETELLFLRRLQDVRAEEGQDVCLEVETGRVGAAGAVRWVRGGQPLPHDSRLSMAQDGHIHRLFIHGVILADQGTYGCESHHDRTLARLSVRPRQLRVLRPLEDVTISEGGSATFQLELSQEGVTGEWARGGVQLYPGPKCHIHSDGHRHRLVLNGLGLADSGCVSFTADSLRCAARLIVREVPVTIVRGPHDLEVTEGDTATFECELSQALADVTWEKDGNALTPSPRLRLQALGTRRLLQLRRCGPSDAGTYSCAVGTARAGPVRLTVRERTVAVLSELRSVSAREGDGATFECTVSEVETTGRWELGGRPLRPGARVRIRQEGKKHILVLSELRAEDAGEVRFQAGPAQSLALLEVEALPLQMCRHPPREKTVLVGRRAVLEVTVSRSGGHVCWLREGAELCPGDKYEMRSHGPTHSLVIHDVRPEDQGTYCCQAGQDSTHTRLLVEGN
UniProt P53384, 30-49: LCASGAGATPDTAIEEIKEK
UniProt P10588, 307-330: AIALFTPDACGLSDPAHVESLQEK
UniProt Q5W0B1: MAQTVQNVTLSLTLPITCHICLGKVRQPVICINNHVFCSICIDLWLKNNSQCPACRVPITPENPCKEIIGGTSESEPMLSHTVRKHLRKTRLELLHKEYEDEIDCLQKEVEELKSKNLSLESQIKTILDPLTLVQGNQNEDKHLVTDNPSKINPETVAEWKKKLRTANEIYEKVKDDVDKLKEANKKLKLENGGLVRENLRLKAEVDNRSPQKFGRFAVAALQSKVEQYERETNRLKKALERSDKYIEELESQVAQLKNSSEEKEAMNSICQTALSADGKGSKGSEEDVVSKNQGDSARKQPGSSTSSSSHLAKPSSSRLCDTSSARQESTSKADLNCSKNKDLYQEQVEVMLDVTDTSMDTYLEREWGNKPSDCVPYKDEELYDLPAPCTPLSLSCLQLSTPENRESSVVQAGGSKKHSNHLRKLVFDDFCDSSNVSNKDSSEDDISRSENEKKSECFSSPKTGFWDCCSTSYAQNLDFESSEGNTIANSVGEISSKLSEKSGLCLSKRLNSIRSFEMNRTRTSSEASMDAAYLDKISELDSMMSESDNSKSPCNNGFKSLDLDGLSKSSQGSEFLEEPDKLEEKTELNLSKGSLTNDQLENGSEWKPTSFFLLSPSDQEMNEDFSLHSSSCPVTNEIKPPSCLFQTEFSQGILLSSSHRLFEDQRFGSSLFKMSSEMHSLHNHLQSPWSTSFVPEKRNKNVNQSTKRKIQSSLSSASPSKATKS
UniProt Q8TEA1: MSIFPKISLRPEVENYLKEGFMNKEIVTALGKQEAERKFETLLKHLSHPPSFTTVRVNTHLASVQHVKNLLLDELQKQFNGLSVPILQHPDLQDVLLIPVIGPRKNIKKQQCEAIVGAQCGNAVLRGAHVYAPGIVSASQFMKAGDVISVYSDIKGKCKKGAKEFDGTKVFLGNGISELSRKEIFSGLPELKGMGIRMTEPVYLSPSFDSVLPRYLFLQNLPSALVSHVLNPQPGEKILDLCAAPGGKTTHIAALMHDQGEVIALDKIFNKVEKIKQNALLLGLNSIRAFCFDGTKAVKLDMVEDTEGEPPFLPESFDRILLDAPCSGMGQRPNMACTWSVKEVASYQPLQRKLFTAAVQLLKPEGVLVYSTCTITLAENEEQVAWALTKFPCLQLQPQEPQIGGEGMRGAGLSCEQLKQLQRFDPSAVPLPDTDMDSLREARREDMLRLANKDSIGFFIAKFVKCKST
UniProt Q9UKX7: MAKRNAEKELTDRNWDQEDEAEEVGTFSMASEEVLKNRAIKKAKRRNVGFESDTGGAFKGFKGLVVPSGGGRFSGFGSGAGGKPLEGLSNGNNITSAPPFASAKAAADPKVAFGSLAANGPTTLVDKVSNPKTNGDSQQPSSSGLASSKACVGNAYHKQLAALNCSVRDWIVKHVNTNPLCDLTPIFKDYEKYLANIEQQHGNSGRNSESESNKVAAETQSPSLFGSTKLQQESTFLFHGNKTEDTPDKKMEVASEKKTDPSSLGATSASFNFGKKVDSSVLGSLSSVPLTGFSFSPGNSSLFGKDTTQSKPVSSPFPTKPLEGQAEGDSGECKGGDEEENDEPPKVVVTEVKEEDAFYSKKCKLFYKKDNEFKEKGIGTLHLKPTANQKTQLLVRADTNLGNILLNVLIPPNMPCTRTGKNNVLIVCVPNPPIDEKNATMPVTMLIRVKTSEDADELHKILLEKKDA
UniProt Q9NZT2: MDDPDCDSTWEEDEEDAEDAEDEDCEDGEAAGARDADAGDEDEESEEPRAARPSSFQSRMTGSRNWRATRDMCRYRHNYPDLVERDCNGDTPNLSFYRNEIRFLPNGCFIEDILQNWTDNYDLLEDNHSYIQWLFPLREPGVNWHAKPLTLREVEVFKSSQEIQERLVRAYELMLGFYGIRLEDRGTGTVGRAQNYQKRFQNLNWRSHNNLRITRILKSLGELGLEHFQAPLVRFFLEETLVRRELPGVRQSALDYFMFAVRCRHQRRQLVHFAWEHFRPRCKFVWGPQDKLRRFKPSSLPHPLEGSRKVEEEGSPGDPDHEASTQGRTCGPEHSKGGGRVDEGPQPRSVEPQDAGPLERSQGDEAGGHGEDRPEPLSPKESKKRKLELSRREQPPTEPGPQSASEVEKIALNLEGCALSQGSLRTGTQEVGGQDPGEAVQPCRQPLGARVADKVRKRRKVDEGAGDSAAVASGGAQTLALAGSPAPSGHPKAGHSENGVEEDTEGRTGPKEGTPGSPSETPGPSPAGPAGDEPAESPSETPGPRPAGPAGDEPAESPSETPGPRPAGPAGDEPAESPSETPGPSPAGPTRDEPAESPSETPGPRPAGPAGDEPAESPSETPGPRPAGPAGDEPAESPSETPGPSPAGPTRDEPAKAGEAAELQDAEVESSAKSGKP
UniProt O60890: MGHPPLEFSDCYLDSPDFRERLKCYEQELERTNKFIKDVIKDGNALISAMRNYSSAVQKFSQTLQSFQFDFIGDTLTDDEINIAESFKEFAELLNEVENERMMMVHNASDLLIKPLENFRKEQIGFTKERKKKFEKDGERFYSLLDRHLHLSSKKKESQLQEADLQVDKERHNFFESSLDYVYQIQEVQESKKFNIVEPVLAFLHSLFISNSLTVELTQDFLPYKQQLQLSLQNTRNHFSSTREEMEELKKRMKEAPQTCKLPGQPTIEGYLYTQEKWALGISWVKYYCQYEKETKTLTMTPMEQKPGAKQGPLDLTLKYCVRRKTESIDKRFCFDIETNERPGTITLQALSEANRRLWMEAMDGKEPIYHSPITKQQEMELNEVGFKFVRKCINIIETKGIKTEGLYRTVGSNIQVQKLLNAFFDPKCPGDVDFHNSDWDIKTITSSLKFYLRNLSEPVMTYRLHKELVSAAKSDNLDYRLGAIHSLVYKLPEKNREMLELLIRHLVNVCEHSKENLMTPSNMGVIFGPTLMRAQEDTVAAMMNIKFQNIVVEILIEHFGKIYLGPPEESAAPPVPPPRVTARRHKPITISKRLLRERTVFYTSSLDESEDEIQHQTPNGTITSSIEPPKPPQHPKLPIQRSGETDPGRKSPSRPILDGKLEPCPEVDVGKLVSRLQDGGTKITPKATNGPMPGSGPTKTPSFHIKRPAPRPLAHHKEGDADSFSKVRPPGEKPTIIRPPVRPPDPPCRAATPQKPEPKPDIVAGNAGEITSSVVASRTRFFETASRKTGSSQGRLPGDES
UniProt P50583: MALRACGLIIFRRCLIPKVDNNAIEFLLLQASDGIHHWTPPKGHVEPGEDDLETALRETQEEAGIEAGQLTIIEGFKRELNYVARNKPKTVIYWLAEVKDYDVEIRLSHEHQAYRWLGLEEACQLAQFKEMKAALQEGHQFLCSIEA
UniProt O96028: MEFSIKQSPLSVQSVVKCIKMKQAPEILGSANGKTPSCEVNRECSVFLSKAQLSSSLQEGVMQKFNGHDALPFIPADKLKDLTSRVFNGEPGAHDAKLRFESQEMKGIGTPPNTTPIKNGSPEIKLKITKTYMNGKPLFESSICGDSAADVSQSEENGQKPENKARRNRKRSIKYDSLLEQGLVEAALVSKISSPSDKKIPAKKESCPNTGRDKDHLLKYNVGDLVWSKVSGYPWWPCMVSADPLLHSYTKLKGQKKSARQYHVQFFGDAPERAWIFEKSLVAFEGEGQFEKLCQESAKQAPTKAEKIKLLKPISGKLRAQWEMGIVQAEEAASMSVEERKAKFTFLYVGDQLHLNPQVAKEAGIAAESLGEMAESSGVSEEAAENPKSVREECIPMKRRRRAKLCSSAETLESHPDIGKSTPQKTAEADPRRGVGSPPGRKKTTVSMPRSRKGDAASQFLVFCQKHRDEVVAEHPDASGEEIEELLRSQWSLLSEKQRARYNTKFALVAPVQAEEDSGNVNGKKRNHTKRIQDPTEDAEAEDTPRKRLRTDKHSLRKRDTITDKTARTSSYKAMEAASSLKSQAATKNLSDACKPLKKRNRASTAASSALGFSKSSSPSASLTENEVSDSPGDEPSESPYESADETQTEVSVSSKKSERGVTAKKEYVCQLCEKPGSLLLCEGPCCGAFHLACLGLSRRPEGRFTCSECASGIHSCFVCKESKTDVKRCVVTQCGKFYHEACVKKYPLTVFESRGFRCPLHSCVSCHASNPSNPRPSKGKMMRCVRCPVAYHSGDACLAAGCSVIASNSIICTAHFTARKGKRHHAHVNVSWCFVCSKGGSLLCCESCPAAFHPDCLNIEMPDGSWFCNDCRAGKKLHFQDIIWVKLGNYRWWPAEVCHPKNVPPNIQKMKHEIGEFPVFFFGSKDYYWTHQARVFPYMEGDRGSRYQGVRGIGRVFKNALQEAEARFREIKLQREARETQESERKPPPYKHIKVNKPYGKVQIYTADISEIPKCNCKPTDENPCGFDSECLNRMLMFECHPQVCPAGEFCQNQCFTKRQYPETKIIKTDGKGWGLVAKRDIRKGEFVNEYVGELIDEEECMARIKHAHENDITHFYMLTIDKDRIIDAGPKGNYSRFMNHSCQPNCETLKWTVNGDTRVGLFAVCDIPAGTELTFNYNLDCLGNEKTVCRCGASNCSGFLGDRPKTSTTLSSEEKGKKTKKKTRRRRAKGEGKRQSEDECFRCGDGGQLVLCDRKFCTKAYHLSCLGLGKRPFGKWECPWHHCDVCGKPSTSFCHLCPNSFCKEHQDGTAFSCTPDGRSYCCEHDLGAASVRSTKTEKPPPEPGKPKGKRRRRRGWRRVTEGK

Tests used:
[1] = compound: ClCC(=O)N[C@@H]1CCCc2ccccc12; test: log2 mean competition ratio of IA-DTB cysteine labelling (DMSO/compound) (log2 ratio); higher = stronger cysteine engagement by compound; conditions: treatment time: 4 h, cell line lysate: HEK293T
Description: (§1)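 IA-DTB competitive cysteine chemoproteomics in HEK293T RIPA lysate. Lysates were treated with compound 29 or 30 at 50 or 200 µM for 4 h, then IA-DTB (500 µM, 1 h), trypsin-digested, NeutrAvidin-enriched and analysed by diaPASEF. Competition ratio = intensity DMSO / intensity compound (n=4 treated, n=64 DMSO); binding: mean log2 CR ≥ 1 and p ≤ 0.05 plus QC filters. Target is the cysteine site.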

[2] = compound: ClCC(=O)N[C@H]1CCCc2ccccc12; test: as above; conditions: treatment time: 4 h, cell line lysate: HEK293T
Description: as §1

Row | Target | log2 mean competition ratio ([1]; 50 µM) | log2 mean competition ratio ([1]; 200 µM) | log2 mean competition ratio ([2]; 50 µM) | log2 mean competition ratio ([2]; 200 µM)
1 | NUDT9 C207 (UniProt Q9BW91) | -0.188 | -0.131 | 0.445 | 0.0503
2 | NRDE2 C608 (UniProt Q9H7Z3) | -0.00749 | 0.302 | -0.172 | -0.135
3 | OBSL1 C13 (UniProt O75147) | 0.0504 | -0.375 | 0.503 | -0.0152
4 | NUBP1 C31 (UniProt P53384) | -0.169 | 0.033 | -0.735 | 0.0666
5 | NR2F6 C316 (UniProt P10588) | 0.293 | 0.24 | 0.787 | 0.0205
6 | OCRL C498 (UniProt Q01968) | -0.126 | -0.0466 | -0.139 | 0.0725
7 | NT5DC3 C276 (UniProt Q86UY8) | 0.0647 | -0.235 | -0.495 | -0.29
8 | OSBPL11 C34 (UniProt Q9BXB4) | 0.0264 | -0.0206 | -0.0222 | -0.133
9 | NT5C3B C56 (UniProt Q969T7) | 0.168 | 0.0363 | -0.144 | 0.15
10 | NUP160 C605 (UniProt Q12769) | -0.087 | -0.25 | -0.176 | -0.146
11 | NUP205 C698 (UniProt Q92621) | 0.0456 | -0.0145 | -0.206 | 0.0571
12 | NSD3 C495 (UniProt Q9BZ95) | 0.084 | -0.198 | 0.3 | -0.292
13 | OBI1 C432 (UniProt Q5W0B1) | -0.018 | 0.146 | 0.178 | -0.0501
14 | NR0B1 C255 | 0.402 | 0.517 | -0.659 | 0.0653
15 | ODR4 C141 (UniProt Q5SWX8) | 0.518 | -0.211 | 0.515 | -0.251
16 | OARD1 C122 (UniProt Q9Y530) | -0.122 | 0.2 | -0.269 | 0.166
17 | NRDC C674 (UniProt O43847) | 0.33 | -0.167 | 0.0797 | -0.128
18 | NUMA1 C735 (UniProt Q14980) | 0.0328 | -0.00953 | -0.36 | -0.00082
19 | NUP93 C422 (UniProt Q8N1F7) | 0.136 | -0.0645 | 0.535 | 0.00122
20 | OSBPL11 C153 (UniProt Q9BXB4) | 0.235 | -0.378 | 0.154 | -0.541
21 | OAS3 C350 (UniProt Q9Y6K5) | -0.0664 | -0.248 | -0.235 | -0.218
22 | NSUN6 C291 (UniProt Q8TEA1) | 0.0323 | 0.156 | -0.146 | 0.0807
23 | OGA C631 (UniProt O60502) | – | – | 0.0842 | -0.0629
24 | NUP160 C916 (UniProt Q12769) | – | – | -0.219 | -0.102
25 | NSMAF C435 (UniProt Q92636) | 0.0112 | -0.0931 | -0.0218 | 0.00105

Row | Target | log2 mean competition ratio ([1]; 50 µM) | log2 mean competition ratio ([1]; 200 µM) | log2 mean competition ratio ([2]; 50 µM) | log2 mean competition ratio ([2]; 200 µM)
26 | NUP50 C181 (UniProt Q9UKX7) | 0.537 | 0.0835 | 0.334 | 0.00288
27 | NR3C1 C481 (UniProt P04150) | – | 0.413 | 0.037 | 0.257
28 | OGFR C443 (UniProt Q9NZT2) | – | – | 0.425 | 0.135
29 | NPLOC4 C130 | -0.0771 | 0.39 | -0.217 | -0.00353
30 | NTMT1 C195 | – | – | 0.293 | 0.111
31 | NUB1 C317 | – | – | 0.165 | -0.0184
32 | NT5C3A C120 (UniProt Q9H0P0) | -0.218 | 0.385 | -0.0753 | 0.252
33 | NOTCH2 C1357 (UniProt Q04721) | -0.0919 | 0.203 | 0.168 | 0.405
34 | NUMBL C78 (UniProt Q9Y6R0) | 0.0345 | 0.0829 | 0.245 | 0.318
35 | ODAD2 C125 | – | – | -0.302 | -0.232
36 | NPM3 C79 (UniProt O75607) | – | – | -0.54 | -0.064
37 | OSBPL1A C303 (UniProt Q9BXW6) | – | -0.139 | -0.473 | 0.107
38 | NTMT1 C184 | -0.146 | 0.185 | -0.0815 | 0.377
39 | OSBPL6 C301 (UniProt Q9BZF3) | – | – | -0.321 | 0.144
40 | OPTN C472 (UniProt Q96CV9) | – | – | -0.389 | -0.192
41 | OPHN1 C24 (UniProt O60890) | -0.0253 | -0.234 | -0.591 | 0.0069
42 | NUDT2 C143 (UniProt P50583) | -0.0553 | -0.253 | 0.244 | -0.315
43 | OAS3 C574 (UniProt Q9Y6K5) | – | – | 0.197 | -0.0428
44 | NUP205 C1028 (UniProt Q92621) | – | – | -0.114 | 0.151
45 | NUF2 C111 (UniProt Q9BZD4) | – | – | -0.32 | 0.841
46 | OCRL C811 (UniProt Q01968) | – | – | -0.142 | 0.103
47 | NUP98 C1347 (UniProt P52948) | – | – | -0.404 | -0.264
48 | OGA C878 (UniProt O60502) | – | – | -0.171 | -0.146
49 | NSD2 C1315 (UniProt O96028) | – | – | -0.0847 | 0.161

From no. 34 to 35, as listed above:
Row | Target | log2 mean competition ratio ([1]; 50 µM) | log2 mean competition ratio ([1]; 200 µM) | log2 mean competition ratio ([2]; 50 µM) | log2 mean competition ratio ([2]; 200 µM)
34 | NUMBL C78 (UniProt Q9Y6R0) | 0.0345 | 0.0829 | 0.245 | 0.318
35 | ODAD2 C125 | – | – | -0.302 | -0.232
